Among all 320,000 compounds or so, about 22,000 (6.9%) were called active. Inconclusive means that the source gave no clear call. Such entries were picked first, then a sample of the others. Calls follow the shape of the dose curve; as a rule, active = well fitted inhibition curve with a large enough effect; inconclusive = small, poorly fitted or top-dose-only effect, or another doubt; inactive = no such curve, though single readings can be large or run the other way. Potencies of inconclusive entries are doubtful fits and often do not repeat.
assay: Primary qHTS for delayed death inhibitors of the malarial parasite plastid, 96 hour incubation; conditions: P. falciparum luciferase reporter growth; series mostly up to 28.7 µM; activity change, negative = inhibition: at the top concentration
How it was run: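 Delayed-death screen, second-generation endpoint: infected erythrocytes, 2% hematocrit, 0.05% parasitemia final; 96 hours at 37 C, 5% CO2; luciferase detection reagent; luminescence decrease equals reduced growth.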
% is scaled to controls: 0 for no effect and ±100 for the full control effect; potency is read from the fitted curve at half-maximal effect.

SMILES | activity change, negative = inhibition | Potency
CCOC(=O)N1CCC(NC(=O)c2cc(C(=O)Nc3ccc(S(=O)(=O)N4CCOCC4)cc3)ccc2CO)CC1 | inactive: 40.5% | –
CC(Oc1ccccc1)C(=O)N=C1SC2CS(=O)(=O)CC2N1Cc1ccc(F)cc1 (configuration not stated) | – | inconclusive: 11.7 µM [inhibitor, single point]
CCOC(=O)c1ccc(NC(=O)NCCc2ccccc2OC)cc1 | – | inconclusive: 9.28 µM [inhibitor, partial curve, poor fit]
O=C1CC(Cc2ccc(Br)cc2)C(=O)N1c1ccccc1 (configuration not stated) | – | inconclusive: 11.7 µM [inhibitor, partial curve, poor fit]
O=C(CCc1c[nH]c2ccccc12)N[C@@H](Cc1c[nH]c2ccc(O)cc12)C(=O)O | – | active: 4.65 µM
COc1ccc(/C=N/NC(=O)c2ccoc2C)cc1COc1ccc(Cl)cc1 | – | inconclusive: 9.28 µM [inhibitor, single point]
Cn1nc(C(=O)N2CCN(C(c3ccccc3)c3ccccc3)CC2)c2ccccc2c1=O | – | active: 11.7 µM
CC(NC(=S)Nc1c(Br)cccc1OC(F)F)C(C)(C)C (configuration not stated) | – | inconclusive: 11.7 µM [inhibitor, single point]
Cc1cc(C)n(CC(=O)NC2CCCCC2C)c(=O)c1C#N (configuration not stated) | inactive: -0.63% | –
Cn1c(=S)[nH]c2c(c1=O)C(C)(C)Cc1ccccc1-2 | – | active: 3.29 µM
CC(C)(C)OC(=O)NCc1ccc(CNC(=O)c2nc[nH]c2C(=O)N2CCc3ccccc3C2)cc1 | – | inconclusive: 13.1 µM [inhibitor, single point]
Cc1cccc(C2(c3cccc(C)c3)CC2C(=O)NCC2CCCO2)c1 (configuration not stated) | inactive: -12.5% | –
O=C(CN1CCN(c2ccc(O)cc2)CC1)Nc1cc(S(=O)(=O)N2CCCCC2)ccc1Cl | – | active: 9.28 µM
CC1(C)CC(CC(=O)NNc2nc(-c3ccccc3)cs2)C(=O)O1 (configuration not stated) | inactive: 7.98% | –
O=C(O)c1cc(C(F)(F)F)nc2ccccc12 | inactive: -4.09% | –
COc1ccc(OC)c(NC(=O)CCN2CCN(c3ccccc3OC)CC2)c1 | – | inconclusive: 18.5 µM [inhibitor, single point]
CCN(CC)CCCNC(=O)c1ccc(OCC(=O)Nc2ccccc2C(F)(F)F)c(OC)c1 | – | active: 18.5 µM
CCOC(=O)C(CC(=O)O)N1CCCCC1 (configuration not stated) | – | inconclusive: 18.5 µM [inhibitor, single point]
O=C1CC(c2ccccc2Cl)CC(O)=C1C=NCCCO (configuration not stated) | inactive: -10.1% | –
CCOC(=O)c1ccc(N2C(=O)CC(C)(CC)CC2=O)cc1 | inactive: 39.1% | –
O=C(O)c1ccc(COc2ccc3ccccc3c2)o1 | inactive: 376% | –
COc1ccccc1C(CNC(=O)C(C)Oc1ccc(Br)cc1)N1CCCC1 (configuration not stated) | – | inconclusive: 14.7 µM [inhibitor, single point]

In the list so far, two have a tert-butyl group:
SMILES | activity change, negative = inhibition | Potency
CC(NC(=S)Nc1c(Br)cccc1OC(F)F)C(C)(C)C (configuration not stated) | – | inconclusive: 11.7 µM [inhibitor, single point]
CC(C)(C)OC(=O)NCc1ccc(CNC(=O)c2nc[nH]c2C(=O)N2CCc3ccccc3C2)cc1 | – | inconclusive: 13.1 µM [inhibitor, single point]
